Record: PubChem BioAssay AID720505 (Drosophila RNAi Screening Center, 2013)
Purpose: 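Genes needed for store-operated calcium entry in fly cells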 (primary screen). Cells: Drosophila S2R+ cells. Reagents: long dsRNA against Drosophila genes. Treatment: thapsigargin (2 µM) in calcium-free buffer to empty internal stores, then 2 mM calcium added back. Measurement: 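Stores emptied by 2 µM thapsigargin without calcium, then 2 mM calcium re-added; fluo-4 fluorescence followed by FLIPR in 384-well plates, per-well averaged endpoint, raw; two screen passes, some wells retested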. Scale: calcium signal and retest calcium signal: higher = more calcium entry after store depletion. Call rule: 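About 1500 genes called as lowering calcium entry, by varying amounts, judged against per-plate control wells with STIM1 as positive and Rho1 as negative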. Meaning of the calls: active = called as lowering calcium entry; inactive = not called.
The deposit covers about 20,000 reagents; this is a random part of those that have a named target and a result. Over the whole deposit, about 2,100 (10%) got an active call. 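Raw plate signals without normalisation; calls rest on control-based scores that were not deposited; replicate 2 separates called from uncalled poorly.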 A plus sign joins genes that one reagent is predicted to hit. No sequences are given here. Not given: the amount of reagent, the time to read-out.

The first 2 entries, ahead of the listing:
| calcium signal, replicate 1 | calcium signal, replicate 2 | retest calcium signal, replicate 1 | retest calcium signal, replicate 2 | Outcome | target gene | DRSC id |
| --- | --- | --- | --- | --- | --- | --- |
| 172 | 129 | – | – | inactive | Hao + Pex6 | DRSC06097 |
| 114 | 203 | – | – | inactive | Hao + Pex6 | DRSC06704 |

Results, from the first entry:
| calcium signal, replicate 1 | calcium signal, replicate 2 | retest calcium signal, replicate 1 | retest calcium signal, replicate 2 | Outcome | target gene | DRSC id |
| --- | --- | --- | --- | --- | --- | --- |
| 172 | 129 | – | – | inactive | Hao + Pex6 | DRSC06097 |
| 114 | 203 | – | – | inactive | Hao + Pex6 | DRSC06704 |
| 95.3 | 53.8 | – | – | inactive | CG34462 (GeneID 5740319) | DRSC10768 |
| 61.7 | 131 | – | – | active | HmgD (GeneID 37481) | DRSC04619 |
| 160 | 102 | – | – | inactive | cpa (GeneID 37387) | DRSC04080 |
| 157 | 105 | – | – | inactive | CG14684 (GeneID 41281) | DRSC14907 |
| 93.9 | 173 | – | – | inactive | PIG-H (GeneID 40944) | DRSC14856 |
| 118 | 102 | 8155 | 134 | inactive | CG12420 (GeneID 41249) | DRSC14514 |
| 93.1 | 118 | – | – | inactive | Tpr2 (GeneID 34984) | DRSC03461 |
| 110 | 135 | – | – | inactive | CG14744 (GeneID 35858) | DRSC06480 |
| 88.4 | 118 | – | – | inactive | CG30428 (GeneID 246608) | DRSC04041 |
| 98.2 | 73 | – | – | inactive | Faa (GeneID 45577) | DRSC08451 |
| 174 | 125 | – | – | inactive | CG17343 (GeneID 35180) | DRSC02606 |
| 60.1 | 104 | – | – | active | CG17343 (GeneID 35180) | DRSC22807 |
| 139 | 202 | – | – | inactive | Tpc2 (GeneID 37983) | DRSC04322 |
| 56.7 | 104 | – | – | active | CG5402 (GeneID 43306) | DRSC15792 |
| 143 | 110 | – | – | inactive | Mkp + CG34140 | DRSC08585 |
| 119 | 147 | – | – | inactive | CG2182 (GeneID 40697) | DRSC12308 |
| 120 | 224 | – | – | inactive | lncRNA:iab4 (GeneID 3772110) | DRSC22331 |
| 99.3 | 90 | – | – | inactive | Tpst (GeneID 32312) | DRSC18989 |
| 71.1 | 104 | – | – | active | Tpst (GeneID 32312) | DRSC19696 |
| 122 | 96.3 | – | – | inactive | Tpst (GeneID 32312) | DRSC19723 |
| 61.2 | 61.6 | – | – | active | Tpst (GeneID 32312) | DRSC19724 |
| 102 | 142 | – | – | inactive | Tpst (GeneID 32312) | DRSC22621 |
| 214 | 135 | – | – | inactive | CG15239 (GeneID 31343) | DRSC17972 |
| 120 | 147 | – | – | inactive | Nadk1a (GeneID 36506) | DRSC05431 |
| 151 | 150 | – | – | inactive | Nadk1a (GeneID 36506) | DRSC06963 |
| 119 | 83.2 | – | – | inactive | Droj2 (GeneID 41646) | DRSC16450 |
| 197 | 153 | – | – | inactive | fru (GeneID 42226) | DRSC16951 |
| 198 | 111 | 10996 | 137 | inactive | fru (GeneID 42226) | DRSC16952 |
| 184 | 125 | 7194 | 144 | inactive | fru (GeneID 42226) | DRSC16953 |
| 137 | 100 | – | – | inactive | fru (GeneID 42226) | DRSC21600 |
| 126 | 125 | – | – | inactive | mRpS18C (GeneID 43609) | DRSC16538 |
| 127 | 159 | – | – | inactive | CG14416 (GeneID 31273) | DRSC18639 |
| 98.8 | 113 | – | – | inactive | Roc1a (GeneID 31014) | DRSC18483 |
| 88.3 | 88 | – | – | inactive | CG6431 (GeneID 34476) | DRSC02956 |
| 140 | 118 | – | – | inactive | Mpi (GeneID 41192) | DRSC16417 |
| 148 | 162 | – | – | inactive | CG13558 (GeneID 37719) | DRSC04196 |
| 50.4 | 80 | – | – | active | Hn (GeneID 38871) | DRSC11184 |
| 78.8 | 84.1 | – | – | inactive | scramb2 (GeneID 38362) | DRSC08543 |
| 185 | 108 | – | – | inactive | CG5217 (GeneID 42311) | DRSC15740 |
| 71.8 | 132 | – | – | inactive | Oli (GeneID 35066) | DRSC02866 |
| 81.1 | 104 | – | – | inactive | CG7565 (GeneID 38893) | DRSC10881 |
| 104 | 150 | – | – | inactive | fmt (GeneID 38714) | DRSC09717 |
| 133 | 188 | – | – | inactive | CG4291 (GeneID 33264) | DRSC00650 |
| 121 | 173 | – | – | inactive | Pbp95 (GeneID 40949) | DRSC15448 |
| 90.2 | 117 | – | – | inactive | spri (GeneID 31987) | DRSC17846 |
| 101 | 86.5 | – | – | inactive | spri (GeneID 31987) | DRSC17984 |
| 96.9 | 83.2 | – | – | inactive | spri (GeneID 31987) | DRSC17985 |
| 74.1 | 107 | – | – | inactive | spri (GeneID 31987) | DRSC17986 |
| 82.8 | 119 | – | – | inactive | spri (GeneID 31987) | DRSC17988 |
| 84.5 | 115 | – | – | inactive | spri (GeneID 31987) | DRSC17989 |
| 125 | 200 | – | – | inactive | spri (GeneID 31987) | DRSC22927 |
| 190 | 178 | – | – | inactive | Boh2 (GeneID 34559) | DRSC02777 |
| 123 | 106 | – | – | inactive | CG17364 (GeneID 39543) | DRSC10269 |
| 116 | 94.6 | 7138 | 139 | inactive | CG17364 (GeneID 39543) | DRSC10270 |
| 76.3 | 134 | – | – | inactive | CG17364 (GeneID 39543) | DRSC22689 |
| 125 | 7704 | – | – | inactive | CG34115 (GeneID 4379880) | DRSC03840 |
| 168 | 89.3 | – | – | inactive | CG5757 (GeneID 37062) | DRSC06951 |
| 221 | 180 | – | – | inactive | Delta (GeneID 42313) | DRSC16648 |
| 148 | 180 | – | – | inactive | CG13587 (GeneID 37930) | DRSC04223 |
| 106 | 60 | – | – | active | His4r (GeneID 41773) | DRSC16703 |
| 155 | 91.3 | – | – | inactive | Kr-h2 (GeneID 33859) | DRSC03356 |
| 272 | 136 | – | – | inactive | Klf15 (GeneID 31410) | DRSC17742 |
| 122 | 87.6 | – | – | inactive | CG14410 (GeneID 32409) | DRSC19596 |
| 88.7 | 100 | – | – | inactive | CG33060 (GeneID 39807) | DRSC09939 |
| 189 | 113 | – | – | inactive | snsl (GeneID 33696) | DRSC00543 |
| 183 | 103 | – | – | inactive | CG12325 (GeneID 36144) | DRSC06130 |
| 137 | 287 | – | – | inactive | Naglu (GeneID 46386) | DRSC02267 |
| 84.5 | 81.1 | – | – | inactive | CG14106 (GeneID 39506) | DRSC10109 |
| 98.7 | 88.7 | – | – | inactive | EndoGI (GeneID 34953) | DRSC01964 |
| 101 | 78.4 | – | – | inactive | RhoGEF64C (GeneID 38578) | DRSC08318 |
| 88.9 | 89.5 | – | – | inactive | RhoGEF64C (GeneID 38578) | DRSC08319 |
| 219 | 165 | – | – | inactive | CG5913 (GeneID 43132) | DRSC15916 |
| 109 | 4196 | – | – | inactive | CG34136 (GeneID 4379892) | DRSC01833 |
| 114 | 79.3 | – | – | inactive | Nup154 (GeneID 34527) | DRSC03384 |
| 72.2 | 9198 | – | – | inactive | CG40005 (retired record) + cta | DRSC03763 |
| 130 | 210 | – | – | inactive | CG42361 (GeneID 37936) | DRSC04391 |
| 118 | 223 | – | – | inactive | Mmp1 (GeneID 37949) | DRSC04493 |
| 240 | 90 | – | – | inactive | CG2059 (GeneID 31663) | DRSC18203 |
| 103 | 187 | – | – | inactive | Cpr49Ag (GeneID 36353) | DRSC07203 |
| 79.7 | 129 | – | – | inactive | mxt (GeneID 33686) | DRSC00551 |
| – | – | – | – | inactive | HGTX (GeneID 53446) | DRSC09319 |
| 98.3 | 163 | – | – | inactive | HGTX (GeneID 53446) | DRSC11181 |
